Source: PubChem BioAssay AID1508600 (Functional Genomics Laboratory (NCATS/FGL), 2020)
Out of some 53,000 sequences screened, about 3,700 (7%) were called active.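 How the source made its calls: active means gene knockdowns whose robust z-score for IL-1 alpha signal is at least 2 or at most -2, so actives lie on both sides; inactive means the rest.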 The list shows a part of the results.

Test: Components of the Cytosolic LPS Sensing Pathway: Gene Identification via Genome-wide siRNA Screen;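 further: robust z of the log signal after scaling to non-targeting control siRNA wells of the plate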
Settings: RAW264.7 macrophages, IL-1a HTRF, actives lie on both sides, screened at 100 nM (by protocol), cells primed 5 h with Pam3CSK4 first
How it was run: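 Three distinct siRNAs per gene were tested singly at 100 nM in RAW264.7 macrophages. Following Pam3CSK4 priming and 24 hour LipidA transfection, IL-1a secretion was read by HTRF.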

z-score, inactive:
CCUUUAGUGAGAUUAAGCATT against Hectd3 0.379
GGAAAUCCUGGAAAACAAATT against Samm50 -1.14
GCAUUAAGGCACAAACAAATT against Myo1b -0.246
GCCAGCUAAAAUAGAAAAATT against Vldlr -0.304
GCCGGAUGUUCUUUGGCAATT against Mrto4 0.534
GGUGGUGUAAUCAAAUGUATT against Chmp3 1.32
CGAACUUCUUUAUCAGAACTT against Mrgpra4 1.02
GGCACCCUUGAACUCUACUTT against 4930404N11Rik 0.49
GGAAGUUUAGAGCAUGCCATT against Tmem134 -0.792
GGAUCACCAUUGCUUGACUTT against Galt 0.117
CGACUUUCUUGUGGAGUGGTT against Nanos1 -0.207
CCGUGUUAGAGUUUUCGACTT against Top3b 1.2
GGACUCAGCAAAGAAAGAGTT against Eea1 -1.91
GCUGUACAAAACAUAAGAATT against Bcl6 1.11
CCCAGAAACGUGACACUCUTT against Ifnlr1 -1.95
GGGAAAAGGGCUUAAAUGCTT against Tmem198 0.153
GCCACUUGGAAGAUCUAUGTT against Kcnq1 -0.474
GCAUAUGUCUGUGGAAUGUTT against Olfr1505 -0.111
CCCUCCUAGAUACAUUUUGTT against Ifna16 0.00677
GGAGAAGUACAAUAAUGACTT against Cacnb1 -0.297
GGACUGUCAGUACUGUCAATT against Agr3 0.445
CGAAUGACUCGUUUGUUAATT against Samt3 1.22
GCAUCAAGCAGAAAAGAGGTT against Gm5458 -1.16
GCUAUUGGAGAUAUAAUGGTT against Ace 1.58
GGAGGAAUACAAAUUCAAGTT against Vamp5 1.37
GGACAGCACAAUUACCUUUTT against Nr3c1 -0.299
GCUCUGUCAGUGAAUGUGATT against Pkd1l2 -0.516
GGUUGUACUCUACACCAAGTT against Crtac1 -0.705
GCAACAAACUGAGCAAAAATT against Exph5 -1.64

2 entries picked at random from those above:
z-score, inactive:
CCCUCCUAGAUACAUUUUGTT against Ifna16 0.00677
GGAGGAAUACAAAUUCAAGTT against Vamp5 1.37
